Experimental data: paper PMC11926231
These are yes or no findings as the source states them, for the method shown. In cells and extracts the contact can be indirect. These calls come from enrichment with a bait or labelling near it, and not all partners need be listed. Tags and fused reporters may be left off the sequences shown.

By UniProt entry, the sequences of proteins in these tests, tags left out.
UniProt P0DMV8: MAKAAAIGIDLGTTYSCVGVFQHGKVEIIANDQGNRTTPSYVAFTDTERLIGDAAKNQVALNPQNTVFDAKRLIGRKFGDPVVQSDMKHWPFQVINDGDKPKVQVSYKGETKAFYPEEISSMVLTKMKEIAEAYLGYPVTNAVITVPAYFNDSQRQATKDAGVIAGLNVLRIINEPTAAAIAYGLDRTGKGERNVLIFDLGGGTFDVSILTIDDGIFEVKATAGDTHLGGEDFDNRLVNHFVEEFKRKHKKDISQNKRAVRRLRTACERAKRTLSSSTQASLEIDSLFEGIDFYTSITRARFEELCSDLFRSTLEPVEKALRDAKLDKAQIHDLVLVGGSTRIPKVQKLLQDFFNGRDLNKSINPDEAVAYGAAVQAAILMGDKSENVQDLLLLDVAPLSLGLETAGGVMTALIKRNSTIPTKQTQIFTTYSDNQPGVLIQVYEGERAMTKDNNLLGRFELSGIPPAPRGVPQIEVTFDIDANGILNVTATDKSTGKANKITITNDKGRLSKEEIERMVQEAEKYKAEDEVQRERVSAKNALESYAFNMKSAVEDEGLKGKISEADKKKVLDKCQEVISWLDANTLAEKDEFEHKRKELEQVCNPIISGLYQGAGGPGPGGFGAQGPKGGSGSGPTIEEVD
UniProt P11142: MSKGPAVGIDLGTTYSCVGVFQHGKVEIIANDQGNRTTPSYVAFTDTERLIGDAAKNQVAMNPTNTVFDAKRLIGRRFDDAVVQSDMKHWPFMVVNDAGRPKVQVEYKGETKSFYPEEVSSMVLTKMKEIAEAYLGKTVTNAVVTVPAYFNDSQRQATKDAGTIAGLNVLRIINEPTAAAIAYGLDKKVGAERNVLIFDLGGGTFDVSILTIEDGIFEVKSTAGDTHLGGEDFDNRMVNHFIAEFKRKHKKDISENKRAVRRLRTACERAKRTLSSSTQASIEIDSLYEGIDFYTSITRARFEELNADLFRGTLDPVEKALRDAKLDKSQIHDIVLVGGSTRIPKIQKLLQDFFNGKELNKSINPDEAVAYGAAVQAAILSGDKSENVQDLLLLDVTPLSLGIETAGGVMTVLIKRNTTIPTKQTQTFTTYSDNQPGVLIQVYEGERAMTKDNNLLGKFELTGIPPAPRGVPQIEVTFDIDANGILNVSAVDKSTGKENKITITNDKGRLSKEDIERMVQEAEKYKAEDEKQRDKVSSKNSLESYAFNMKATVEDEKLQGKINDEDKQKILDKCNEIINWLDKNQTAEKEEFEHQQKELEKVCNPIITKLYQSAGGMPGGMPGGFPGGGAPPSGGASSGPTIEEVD
UniProt P34932: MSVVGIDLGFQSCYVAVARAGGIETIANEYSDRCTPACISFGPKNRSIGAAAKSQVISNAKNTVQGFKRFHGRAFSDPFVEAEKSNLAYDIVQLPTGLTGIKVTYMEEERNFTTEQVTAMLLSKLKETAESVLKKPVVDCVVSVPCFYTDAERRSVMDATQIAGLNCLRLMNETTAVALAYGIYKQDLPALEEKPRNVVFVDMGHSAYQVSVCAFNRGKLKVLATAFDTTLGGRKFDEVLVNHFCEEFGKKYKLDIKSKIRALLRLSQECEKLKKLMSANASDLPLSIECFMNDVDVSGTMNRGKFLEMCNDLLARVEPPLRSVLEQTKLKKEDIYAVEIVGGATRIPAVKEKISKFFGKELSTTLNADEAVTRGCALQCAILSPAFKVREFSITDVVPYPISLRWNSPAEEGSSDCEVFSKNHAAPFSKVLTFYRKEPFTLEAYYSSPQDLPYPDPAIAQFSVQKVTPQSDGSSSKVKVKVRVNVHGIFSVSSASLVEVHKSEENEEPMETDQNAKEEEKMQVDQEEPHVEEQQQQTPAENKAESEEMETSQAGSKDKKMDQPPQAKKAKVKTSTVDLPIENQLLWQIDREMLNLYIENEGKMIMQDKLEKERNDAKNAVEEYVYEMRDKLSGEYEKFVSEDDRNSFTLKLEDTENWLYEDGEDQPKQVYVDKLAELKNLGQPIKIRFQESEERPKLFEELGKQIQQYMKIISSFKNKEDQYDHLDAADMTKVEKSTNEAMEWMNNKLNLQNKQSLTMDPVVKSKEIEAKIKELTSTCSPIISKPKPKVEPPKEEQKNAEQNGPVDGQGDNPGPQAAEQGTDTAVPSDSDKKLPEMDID

Target: T1, Flag-tagged PER2 (Flag-PER2) (human) (UniProt O15055)
T1 sequence: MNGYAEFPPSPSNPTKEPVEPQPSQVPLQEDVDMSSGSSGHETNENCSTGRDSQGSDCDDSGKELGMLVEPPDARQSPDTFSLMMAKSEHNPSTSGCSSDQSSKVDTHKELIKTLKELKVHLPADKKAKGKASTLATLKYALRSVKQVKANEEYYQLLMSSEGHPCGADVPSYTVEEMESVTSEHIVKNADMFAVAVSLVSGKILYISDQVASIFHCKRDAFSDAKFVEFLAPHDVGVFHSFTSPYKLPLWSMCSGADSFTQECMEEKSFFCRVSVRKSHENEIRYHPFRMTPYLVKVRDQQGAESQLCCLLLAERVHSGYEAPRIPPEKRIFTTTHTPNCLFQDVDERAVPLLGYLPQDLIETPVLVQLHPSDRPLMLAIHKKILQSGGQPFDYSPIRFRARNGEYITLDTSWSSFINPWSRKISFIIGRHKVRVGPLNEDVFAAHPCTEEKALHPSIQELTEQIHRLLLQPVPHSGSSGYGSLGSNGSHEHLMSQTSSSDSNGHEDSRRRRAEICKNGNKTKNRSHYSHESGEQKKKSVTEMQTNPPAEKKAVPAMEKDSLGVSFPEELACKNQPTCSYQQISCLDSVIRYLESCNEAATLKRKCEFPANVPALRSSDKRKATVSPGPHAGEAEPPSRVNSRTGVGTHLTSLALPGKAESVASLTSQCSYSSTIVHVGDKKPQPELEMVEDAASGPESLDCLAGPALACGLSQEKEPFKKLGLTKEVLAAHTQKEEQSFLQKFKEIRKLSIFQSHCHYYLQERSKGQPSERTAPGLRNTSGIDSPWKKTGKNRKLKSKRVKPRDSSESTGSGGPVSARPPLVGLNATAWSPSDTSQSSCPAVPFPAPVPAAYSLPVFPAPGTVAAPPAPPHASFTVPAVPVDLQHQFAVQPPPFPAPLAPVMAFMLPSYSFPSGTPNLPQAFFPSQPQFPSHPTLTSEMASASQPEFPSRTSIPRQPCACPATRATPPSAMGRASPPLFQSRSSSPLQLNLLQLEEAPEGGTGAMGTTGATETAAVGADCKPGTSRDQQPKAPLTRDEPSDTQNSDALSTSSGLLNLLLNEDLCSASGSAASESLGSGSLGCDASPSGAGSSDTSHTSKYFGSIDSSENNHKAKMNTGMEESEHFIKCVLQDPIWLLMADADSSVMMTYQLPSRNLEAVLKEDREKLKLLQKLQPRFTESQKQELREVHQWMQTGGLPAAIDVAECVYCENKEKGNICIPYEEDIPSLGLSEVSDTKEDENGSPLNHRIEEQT
Assay: affinity purification with mass spectrometry; Flag-PER2 plasmid transfected into SCC25 cells, collected after 48 h; immunoprecipitated with Flag antibody; 10% SDS-PAGE, in-gel digestion, TRIPLE TOF 6600; screening criterion unique peptide >=2

binding, binds:
heat shock protein 70 (HSP70) in SCC25 and 293 T cells (from UniProt P0DMV8 1-641), HSPA8 (from UniProt P11142 1-646), HSPA4 (from UniProt P34932 1-840)
